Measurements reported in PubChem BioAssay AID743121 (NCATS, 2013).
The deposit covers about 26,000 reagents; shown is a random part of them. Of all reagents, 167 (0.63%) were called active. 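Calls are per gene from RSA p-values that are not deposited; an individual active-marked siRNA can sensitise only weakly.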 A number with no mark means an inactive call. The numbers tell different reagents against one gene apart. Not all columns of the deposit are shown.

Test: 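Genes whose silencing strengthens cell killing by camptothecin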 (primary screen)
Cells: MDA-MB-231 cells, a human breast cancer line
Reagent: single siRNA against human genes, 20 nM siRNA (0.8 pmol per well)
Duration: 120 h (drug added 48 h after transfection, read 72 h later)
Conditions: camptothecin 20 nM (about EC30) for 72 h; vehicle 0.1% DMSO in parallel plates
Measured: 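Cell viability by ATP luminescence (CellTiter-Glo) as % of non-targeting siRNA wells, and the log2 ratio of viability without drug over viability with camptothecin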
Reading the numbers: log2 vehicle/camptothecin viability: higher = stronger sensitisation to camptothecin
Call rule: 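Active genes have an RSA gene-level p-value below 0.001, computed from the ratios of their separate siRNAs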

log2 vehicle/camptothecin viability, by gene and reagent
SSR3: #1 -0.0546; #2 0.177; #3 0.0526; #4 0.0389
DCX: #1 0.157; #2 -0.109; #3 -0.234; #4 -0.602
PAWR: #1 -0.00572; #2 -0.124; #3 0.249; #4 -0.535
LNX1: #1 -0.388; #2 -0.152; #3 -0.343; #4 -0.23
LIF: #1 0.147; #2 0.134; #3 -0.128; #4 0.0585
FBN2: #1 0.0101; #2 -0.321; #3 -0.0917; #4 -0.7
SLC25A2: #1 -0.315; #2 -0.319; #3 -0.167; #4 -0.218
FGF6: #1 -0.1; #2 0.952; #3 -0.016; #4 -0.0528
CACNB2: #1 0.0326; #2 0.81; #3 0.0675; #4 0.479
PER3: #1 -0.124; #2 -0.375; #3 -0.15

Part of the list above, reformatted.
| Gene | reagent | log2 vehicle/camptothecin viability |
| --- | --- | --- |
| FGF6 | 4 | -0.0528 |
| CACNB2 | 1 | 0.0326 |
| CACNB2 | 2 | 0.81 |
| CACNB2 | 3 | 0.0675 |
| CACNB2 | 4 | 0.479 |

The list goes on.
log2 vehicle/camptothecin viability, by gene and reagent
NEK6: #1 0.24; #2 -0.114; #3 -0.166; #4 -0.0314
SLK: #1 -0.569; #2 -0.0747; #3 0.991; #4 -0.235
WDHD1: #1 0.0802; #2 -0.154; #3 0.823; #4 -0.531
GPC3: #1 -0.358; #2 -0.0241; #3 0.418; #4 -0.316
CNR1: #1 0.219; #2 -0.251; #3 -0.697; #4 -0.0288
RXRA: #1 -0.405; #2 -0.471; #3 -0.449; #4 -0.109
ADH6: #1 0.0794; #2 -0.131; #3 -0.129
PMAIP1: #1 -0.502; #2 -0.832; #3 -0.147; #4 -0.532
